Laboratory results published in patent US20240141027A1.
Results are given in words; binding and its absence hold for the method and conditions named. Some binding calls cover weakened binding; strength is not graded here.

Target: recombinant Aβ1-42
Test: indirect ELISA, plates coated with recombinant Aβ1-42

B1: mAb158 IgG (antibody, V domains shown)
VH: EVKLMESGGGLVQPGGSRKLSCAASGFTFSSFGMHWVRQAPEKGLEWVAYISSGSSTIYYGDTVKGRFTISRDNPKNTLFLQMTSLRSEDTAMYYCAREGGYYYGRSYYTMDYWGQGTSVTVSS
VL: DIVMTQAPLSLPVSLGDQASISCRSSQSIVHSNGNTYLEWYLQKPGQSPKLLIYKVSNRFSGVPDRFSGSGSGTDFTLKISRVEAEDLGIYYCFQGSHVPPTFGGGTKLEIKR
For B1, the binding was “binds”.
